Values are relative to the signal before dosing, not to a vehicle control; the signal also falls without drug.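 Labels refer to human fibroblasts, largely primary: uterine (C12385, HUF), lung (H6013), bone (Hs27A), adrenal (HADF), skin (WS1), plus mammary HMF and breast cancer-associated Hs343T. Cancer lines are basal-like or mesenchymal-like triple-negative breast cancer. The paper counts as hits responses shifting over 3x the replicate standard deviation. The tissue of the other fibroblasts is not given here.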
Tested on: Hs578T
Experiment: relative JC-1 red fluorescence (viability) vs pre-drug, coculture with fibroblast (fraction); higher = more viable cancer cells
Procedure: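 JC-1 labelled TNBC cells cocultured 1:1 (1,500 cells each) with CellTrace Violet stained primary or stromal fibroblasts in 384-well plates in FluoroBrite medium, treated with one of 42 anticancer drugs at 0.1, 1, 10 or 100 uM. JC-1 red fluorescence (mitochondrial integrity in cancer cells only) was read by plate reader every 8 h for 72 h. Values are normalised to each well's pre-drug value. The stock of one drug was tenfold lower, so its dose labels may be too high.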

O=C(O)C1(C(=O)O)CCC1.[NH2-].[NH2-].[Pt+2] [Carboplatin]
relative JC-1 red fluorescence
Settings	8 h	16 h	24 h	32 h	40 h	48 h	56 h	64 h	72 h
0.1 µM	0.915	0.812	0.754	0.7112	0.65	0.6	0.562	0.516	0.491
1 µM	0.887	0.779	0.717	0.6707	0.6049	0.558	0.535	0.492	0.467

relative JC-1 red fluorescence
Settings	8 h	16 h	24 h	32 h	40 h	48 h	56 h	64 h	72 h
0.1 µM, coculture fibroblast: C12385	0.8367	0.742	0.686	0.585	0.516	0.478	0.45	0.435	0.434
0.1 µM, coculture fibroblast: H6013	0.885	0.804	0.761	0.7362	0.7065	0.69633	0.6775	0.6764	0.6527
0.1 µM, coculture fibroblast: H6019	0.799	0.69	0.697	0.6194	0.598	0.585	0.559	0.544	0.517
0.1 µM, coculture fibroblast: H6076	0.878	0.803	0.769	0.772	0.739	0.759	0.76	0.768	0.782
0.1 µM, coculture fibroblast: H6231	0.908	0.813	0.73837	0.702	0.641	0.612	0.566	0.542	0.526
0.1 µM, coculture fibroblast: HADF	0.92	0.838	0.769	0.696	0.642	0.597	0.556	0.541	0.505
0.1 µM, coculture fibroblast: HCFa	0.868	0.776	0.711	0.667	0.601	0.569	0.536	0.522	0.488
0.1 µM, coculture fibroblast: HCPF	0.912	0.8	0.736	0.709	0.648	0.623	0.599	0.567	0.558
0.1 µM, coculture fibroblast: HHSteC	0.893	0.788	0.724	0.675	0.609	0.574	0.546	0.524	0.491
0.1 µM, coculture fibroblast: HMF	0.844	0.781	0.7328	0.7318	0.689	0.667	0.634	0.62	0.612
0.1 µM, coculture fibroblast: HPFa	0.9075	0.8416	0.744	0.666	0.611	0.569	0.521	0.491	0.447
0.1 µM, coculture fibroblast: HUF	0.849	0.753	0.716	0.612	0.562	0.531	0.501	0.501	0.498
0.1 µM, coculture fibroblast: Hs27A	0.8775	0.82	0.796	0.748	0.687	0.672	0.64	0.628	0.582
0.1 µM, coculture fibroblast: Hs343T	0.87	0.78	0.753	0.7549	0.7069	0.7084	0.683	0.6822	0.6928
0.1 µM, coculture fibroblast: WS1	0.83	0.74	0.681	0.59	0.5427	0.528	0.503	0.509	0.507
1 µM, coculture fibroblast: C12385	0.771	0.701	0.647	0.558	0.494	0.46	0.432	0.428	0.423
1 µM, coculture fibroblast: H6013	0.8385	0.806	0.768	0.741	0.72	0.705	0.685	0.68	0.65
1 µM, coculture fibroblast: H6019	0.792	0.726	0.716	0.627	0.584	0.547	0.508	0.483	0.444
1 µM, coculture fibroblast: H6076	0.882	0.8143	0.7622	0.728	0.677	0.668	0.6566	0.6542	0.651
1 µM, coculture fibroblast: H6231	0.87325	0.778	0.7133	0.6622	0.59	0.558	0.516	0.495	0.484
1 µM, coculture fibroblast: HADF	0.872	0.794	0.728	0.677	0.652	0.641	0.61	0.606	0.587
1 µM, coculture fibroblast: HCFa	0.8362	0.7897	0.728	0.681	0.632	0.606	0.564	0.547	0.502
1 µM, coculture fibroblast: HCPF	0.91	0.825	0.762	0.716	0.653	0.627	0.605	0.565	0.5487
1 µM, coculture fibroblast: HHSteC	0.853	0.797	0.74	0.687	0.636	0.6013	0.5794	0.561	0.521
1 µM, coculture fibroblast: HMF	0.866	0.772	0.697	0.668	0.608	0.575	0.538	0.513	0.5
1 µM, coculture fibroblast: HPFa	0.8891	0.7923	0.736	0.68	0.641	0.601	0.555	0.531	0.485
1 µM, coculture fibroblast: HUF	0.8621	0.7251	0.6833	0.576	0.515	0.479	0.452	0.438	0.432
1 µM, coculture fibroblast: Hs27A	0.8467	0.782	0.719	0.6608	0.592	0.5657	0.5212	0.5101	0.4643
1 µM, coculture fibroblast: Hs343T	0.875	0.775	0.714	0.683	0.611	0.583	0.545	0.527	0.52
1 µM, coculture fibroblast: WS1	0.779	0.685	0.63	0.522	0.454	0.43	0.4	0.388	0.3816

Reference: the supplement of paper PMC6078165
